Test results published in PMC11167044.
Results are given in words; binding and its absence hold for the method and conditions named. Binding seen in cells or lysates may run through a third protein. These calls come from enrichment with a bait or labelling near it, and not all partners need be listed.

Amino acid sequences for entries named in this document (tags omitted).
UniProt P99999: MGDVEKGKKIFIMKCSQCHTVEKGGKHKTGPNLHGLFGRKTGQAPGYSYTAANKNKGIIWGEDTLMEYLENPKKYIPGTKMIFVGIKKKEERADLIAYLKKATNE
UniProt P14618: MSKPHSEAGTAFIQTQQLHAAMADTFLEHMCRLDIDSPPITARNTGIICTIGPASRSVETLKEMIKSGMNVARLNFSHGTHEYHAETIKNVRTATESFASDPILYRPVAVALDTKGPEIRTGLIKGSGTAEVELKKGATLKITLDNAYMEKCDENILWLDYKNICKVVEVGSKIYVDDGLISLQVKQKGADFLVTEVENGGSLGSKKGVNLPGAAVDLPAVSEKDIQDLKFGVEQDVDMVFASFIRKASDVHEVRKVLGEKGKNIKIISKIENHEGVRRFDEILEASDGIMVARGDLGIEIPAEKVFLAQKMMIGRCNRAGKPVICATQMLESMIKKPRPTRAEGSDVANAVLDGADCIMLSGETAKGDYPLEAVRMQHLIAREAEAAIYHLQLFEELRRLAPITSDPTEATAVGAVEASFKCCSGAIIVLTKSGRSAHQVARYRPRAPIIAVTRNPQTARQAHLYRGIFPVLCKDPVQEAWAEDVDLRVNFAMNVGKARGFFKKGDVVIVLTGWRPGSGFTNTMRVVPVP

Biological target: T1, MYG1 stably overexpressed in SW480 cells (human) (UniProt Q9HB07)
T1 sequence: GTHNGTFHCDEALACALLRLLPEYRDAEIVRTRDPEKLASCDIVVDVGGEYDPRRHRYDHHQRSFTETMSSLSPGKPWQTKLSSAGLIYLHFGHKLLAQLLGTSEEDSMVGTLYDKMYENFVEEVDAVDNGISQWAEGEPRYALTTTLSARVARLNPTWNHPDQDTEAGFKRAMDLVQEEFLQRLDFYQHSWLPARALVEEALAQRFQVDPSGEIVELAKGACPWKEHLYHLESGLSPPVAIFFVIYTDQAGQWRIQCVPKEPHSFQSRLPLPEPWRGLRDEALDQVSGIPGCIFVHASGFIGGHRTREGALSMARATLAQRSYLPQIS
Test: affinity purification with mass spectrometry; nucleus and mitochondria separated from SW480 cells overexpressing MYG1; co-immunoprecipitation of MYG1; proteins identified by IP-MS (LC/MS)

Substance | binding
Cyt c (from UniProt P99999 1-105) | binds
PKM2 in SW480 cells (from UniProt P14618 1-531) (enzyme) | binds
